Results deposited as PubChem BioAssay AID1224828 (NIAID, 2016)
Purpose: 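Regulators linking TLR4 signalling to p65 nuclear translocation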 (primary screen). System: mouse RAW264.7 G9 macrophage reporter cells (GFP-p65, Tnf promoter-mCherry). Reagents: siRNA pool against mouse genes, 100 nM. Time to read-out: 2 days siRNA transfection, then 40 min LPS before fixation. Conditions: LPS (Salmonella minnesota R595) at 10 ng/ml. Read-out: 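Microscopy ratio of nuclear to perinuclear-ring GFP-p65 signal, scaled to the plate median; gene score is the average of two replicate robust z-scores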. Reading the numbers: p65 translocation robust z-score: higher = more nuclear NF-kappaB p65 after LPS than the plate median; nuclear/cytoplasmic p65 ratio: higher = more nuclear NF-kappaB p65. Hit rule: 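Called active when z exceeds 3.3 or falls under -1.56 (median of Tlr4 controls), giving activity score of at least 50; no calls for control wells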. Calls: active = hit (p65 shift raised or lowered); inactive = no clear change.
The whole screen tested about 17,000 reagents; this is a part drawn at random. 762 of them (4.5%) count as active. 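Active calls include both raised and lowered p65 entry, mostly lowered; wells with fewer than 50 cells lack a z-score.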 The raw values are shown without normalisation. Unmarked entries are inactive. Reagents against one gene are numbered here.

no.	gene knocked down	pool no.	p65 translocation robust z-score	nuclear/cytoplasmic p65 ratio, rep 1	nuclear/cytoplasmic p65 ratio, rep 2	low cell count flag
1	Fkrp	1	-1.05	1.32	1.21	enough cells to score
2	D030022P06RIK	1	-0.43	1.52	1.7	enough cells to score
3	Or10d3	1	1.36	1.71	1.32	enough cells to score
4	Vbp1	1	-0.48	1.48	1.4	enough cells to score
5	Baz1b	1	0.06	1.59	1.65	enough cells to score
6	Tgm2	1	1.82	1.71	1.84	enough cells to score
7	Lrrc42	1	0	1.46	1.44	enough cells to score
8	Hoxc8	1	-1.99 (active)	1.36	1.24	enough cells to score
9	S1pr4	1	0	1.48	1.61	enough cells to score
10	1700010I14Rik	1	-0.49	1.27	1.42	enough cells to score
11	Zfp956	1	-1.08	1.38	1.58	enough cells to score
12	Prps2	1	-0.87	1.54	1.28	enough cells to score
13	Dynlt1b	1	0.61	1.67	1.54	enough cells to score
14	Pcsk9	1		1.37	1.23	fewer than 50 cells per well; well left out of scoring
15	Foxp1	1	-0.11	1.4	1.38	enough cells to score
16	Nkrf	1	-0.02	1.35	1.54	enough cells to score
17	Sgip1	1	-0.52	0.961	1.2	enough cells to score
18	Slc8a1	1	-0.57	1.4	1.47	enough cells to score
19	Slc8a1	2	-0.49	1.48	1.49	enough cells to score
20	Tiparp	1	0.36	1.51	1.62	enough cells to score
21	Or13p4	1	2.25	1.38	1.72	enough cells to score
22	Zfp938	1	-2.27 (active)	1.43	1.16	enough cells to score
23	Psg18	1	1.35	1.52	1.39	enough cells to score
24	Mon2	1		1.29	1.28	fewer than 50 cells per well; well left out of scoring
25	Tnc	1	1.2	1.66	1.72	enough cells to score
26	Ca13	1	-1.53	1.34	1.56	enough cells to score
27	Rsph6a	1		1.34	1.19	fewer than 50 cells per well; well left out of scoring
28	Pkdrej	1	-0.4	1.43	1.37	enough cells to score
29	Zfp236	1	-0.45	1.36	1.19	enough cells to score
30	Vmn1r174	1	0.91	1.56	1.29	enough cells to score
31	Chrna4	1	-0.54	1.52	1.31	enough cells to score
32	Xylt2	1	-0.01	1.41	1.25	enough cells to score
33	Cisd1	1	-0.76	1.47	1.65	enough cells to score
34	Tbrg3	1	0.44	1.35	1.3	enough cells to score

Continued (2 carried over from the part before).
no.	gene knocked down	pool no.	p65 translocation robust z-score	nuclear/cytoplasmic p65 ratio, rep 1	nuclear/cytoplasmic p65 ratio, rep 2	low cell count flag
33	Cisd1	1	-0.76	1.47	1.65	enough cells to score
34	Tbrg3	1	0.44	1.35	1.3	enough cells to score
35	Mgat5b	1	0.86	1.49	1.68	enough cells to score
36	Hbp1	1	3.44 (active)	2.47	1.75	enough cells to score
37	Map1a	1	-1.52	1.24	1.16	enough cells to score
38	Pcdha11	1	-0.05	1.48	1.2	enough cells to score
39	Sprr2h	1	0.97	1.62	1.28	enough cells to score
40	Nupr2	1		1.12	1.28	fewer than 50 cells per well; well left out of scoring
41	Chid1	1	0.29	1.66	1.65	enough cells to score
42	Arl5a	1	1.14	1.68	1.89	enough cells to score
43	Dtna	1	-0.91	1.34	1.25	enough cells to score
44	Spag11a	1	1.3	1.52	1.44	enough cells to score
45	Poll	1	0.73	1.53	1.57	enough cells to score
46	Eddm3b	1	-0.36	1.59	1.55	enough cells to score
47	Atp5f1a	1	-0.04	1.51	1.6	enough cells to score
48	Tubb4b	1	-0.51	1.55	1.52	enough cells to score
49	Maea	1	0.97	1.83	1.72	enough cells to score
50	Evi2b	1	-0.11	1.43	1.37	enough cells to score
51	Fbp2	1	0.19	1.51	1.26	enough cells to score
52	Taf10	1	0.54	1.59	1.39	enough cells to score
53	Rpl31	1	-0.7	1.42	1.14	enough cells to score
54	Cox10	1	1.21	1.66	1.52	enough cells to score
55	Nrap	1	0.51	1.75	1.64	enough cells to score
56	Txn1	1	-0.35	1.54	1.38	enough cells to score
57	Zfp692	1	-0.47	1.52	1.63	enough cells to score
58	Tspan12	1	2.01	1.62	1.3	enough cells to score
59	Ubtf	1	-0.04	1.61	1.4	enough cells to score
60	Zfp92	1	0.42	1.52	1.25	enough cells to score
61	Or51b6	1	1.58	1.63	1.47	enough cells to score
62	Ltb4r2	1	-0.96	1.35	1.47	enough cells to score
63	Eras	1	-0.87	1.39	1.42	enough cells to score
64	Mcts1	1	-0.21	1.4	1.33	enough cells to score
65	Pdk1	1		1.8	1.28	fewer than 50 cells per well; well left out of scoring
66	C1qtnf4	1	-0.43	1.37	1.47	enough cells to score
67	Tmem69	1	-0.73	1.2	1.51	enough cells to score
68	Sec62	1		0	1.03	fewer than 50 cells per well; well left out of scoring
69	Or8g20	1	1.58	1.65	1.46	enough cells to score
70	Fhl1	1	-0.99	1.11	1.35	enough cells to score
71	Slc6a2	1	0.54	1.48	1.71	enough cells to score
72	Gpd2	1	0.33	1.4	1.43	enough cells to score
73	Syt15	1		1.32	1.18	fewer than 50 cells per well; well left out of scoring
74	Ca1	1	-0.38	1.51	1.6	enough cells to score
75	Rps6ka4	1		1.24	1.04	fewer than 50 cells per well; well left out of scoring
